According to PubChem BioAssay AID493014 (National Center for Advancing Translational Sciences (NCATS), 2011):
Where “and” joins values, the source holds several entries; their conditions need not be identical. Equal values may be shown once. This is one part of the list. These are further read-outs of the screen, such as a control signal, another cell line or another target. No call is given for them. Compounds called inactive in the main read-out are mostly missing here. The note in brackets gives the kind of curve behind each potency; many fits are weak.

Experiment: qHTS Assay to Find Inhibitors of Chronic Active B-Cell Receptor Signaling
Conditions: ABC-DLBCL IkBa-CBG/CBR reporter, luminescence ratio (green luciferase fused to IkBa over red control in TMD8 lymphoma cells), 4 h
Method in brief: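 Compounds up to 46 uM were incubated four hours with TMD8 cells whose green CBG68 luciferase is fused to IkappaBalpha; red CBR luminescence normalised the signal, and concentration-effect curves were fitted to fusion, red and ratio data.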

[1] = measured here: CBR red luminescence, cell number
[2] = measured here: IkBa-CBG green luminescence

| Compound | AC50 [1] | AC50 [2] |
| --- | --- | --- |
| COc1cccc(C(=O)NC(=S)N2c3ccccc3CC2C)c1OC (stereo unspecified) | 10 µM [rising, single point] |  |
| N#C/C(=C\c1cccnc1)c1ccccc1[N+](=O)[O-] | 31.6 µM [falling, single point] |  |
| COc1ccc(NS(=O)(=O)c2coc(C(N)=O)c2)cc1Cl | 11.6 µM [rising, partial curve, poor fit] |  |
| O=[N+]([O-])c1cnc(Sc2ccncn2)s1 | 5.62 µM [rising, single point] | 5.62 µM [falling, single point] |
| O=C(Nc1ccccc1)Nc1nc(-c2ccc(F)c(F)c2)cs1 | 35.5 µM [falling, single point] |  |
| Cn1c(CN2CCCCC2)nc2cc(NC(=O)c3ccc(Cl)cc3)ccc21 | 35.5 µM [falling, single point] |  |
| COc1ccc(/C=N/Nc2nnc(C)n2N)cc1OC(C)=O | 35.5 µM [falling, single point] |  |
| Cc1ccc2nc(NC(=O)CS(=O)(=O)Cc3ccccc3)sc2c1 | 35.5 µM [falling, single point] |  |
| COc1ccc(/C=C(\NC(=O)c2ccc([N+](=O)[O-])cc2)C(=O)N2CCOCC2)cc1 | 20 µM [rising, partial curve, poor fit] |  |
| COc1ccccc1-n1c(CCn2nc(C)c(Br)c2C)n[nH]c1=S | 18.4 µM [falling, single point] |  |
| S=C(NNC(=S)Nc1ccccc1)Nc1ccccc1 | 10 µM [falling, partial curve, poor fit] |  |
| O=c1[nH]c2ccccc2nc1/C=C/c1ccc(O)cc1 | 14.1 µM [falling, single point] |  |
| CC1=C(C(=O)Nc2ccccc2F)C(c2ccsc2)C2=C(CC(C)(C)CC2=O)N1 (stereo unspecified) | 3.26 µM [falling, partial curve, poor fit] |  |
| O=C(/C=C\Nc1ccccc1Br)c1ccc2c(c1)OCO2 | 12.6 µM [falling, partial curve] |  |
| COC(=O)Cc1nc2ccccc2[nH]1 | 7.94 µM [falling, partial curve, poor fit] |  |
| N#Cc1c(NC(=O)CSc2ncnc3sccc23)oc(-c2ccco2)c1-c1ccco1 |  | 1 µM [rising, full curve, poor fit] |
| C=CCC[C@@H](Cc1ccc(F)cc1)C(=O)OC[C@H](C)NC(=O)[C@@H](CC=C)CC(=O)N(CCO)Cc1ccccc1 | 10.3 µM [falling, partial curve, poor fit] |  |
| S=c1nc(C2CC2)[nH]c2ccccc12 | 5.8 µM [rising, single point] | 10.3 µM [falling, partial curve, poor fit] |
| CCCCSc1nnc(-c2ccccc2N)c(=O)[nH]1 | 35.5 µM [falling, single point] |  |
| CCCCCCC(=O)Nc1nc(C)c(-c2csc(Nc3cc(OC)ccc3OC)n2)s1 | 17.8 µM [falling, partial curve, poor fit] |  |
| Cn1cccc1C1(C(F)(F)F)NCCNC1=O (stereo unspecified) | 6.51 µM [rising, single point] |  |

| Compound | AC50 [1] | AC50 [2] |
| --- | --- | --- |
| COc1cccc(-c2cc(C(=O)Nc3cnn(Cc4ccc(F)cc4)c3)no2)c1 | 8.91 µM [falling, partial curve] |  |
| O=C(Oc1ccc2c(c1)OCO2)c1cc2c(s1)CCC2 | 35.5 µM [rising, single point] |  |
| Cc1cc(C)nc(Nc2nc(=O)c3ccccc3s2)n1 | 8.91 µM [falling, partial curve, poor fit] |  |
| Nc1ncnc2c1ncn2C1OC(CO)C(O)C1O (stereo unspecified) | 15.8 µM [rising, partial curve] | 35.5 µM [falling, partial curve, poor fit] |
| CN(C)c1ccc(-c2ccc([C@H]3[C@@H]4C=CCC[C@@]4(C)C(=O)N3Cc3ccccc3)c(F)c2)cc1 | 22.4 µM [rising, single point] |  |
| Cc1ccc(CNc2ncc(-c3ccc4c(c3)OCO4)n2C)cc1 | 14.1 µM [rising, single point] |  |
| Cc1ccccc1C(=O)OCc1cnc(Cl)s1 | 17.8 µM [rising, single point] |  |
| CCCC12CN3CCN(CC(C3)/C1=N\NC(=O)c1ccccc1Cl)C2 | 3.55 µM [falling, full curve, poor fit] |  |
| CCN(CC(=O)Nc1c(F)cccc1F)C(=O)c1ccc(-c2ccc(C(C)=O)cc2)o1 | 2.91 µM [rising, full curve, poor fit] |  |
| COC(=O)C1=C(C)N(CCC2=CCCCC2)C(=O)C1 | 0.00411 µM [falling, full curve, poor fit] |  |
| Cc1ccccc1/C=N/NC(=O)Cn1cnc([N+](=O)[O-])n1 | 6.51 µM [rising, single point] |  |
| COc1cccc(-c2ccc3ncnc(NCc4ccc5c(c4)OCO5)c3c2)c1 | 29.1 µM [falling, single point] and 13 µM [falling, partial curve, poor fit] |  |
| c1ccn(-c2ccc(-c3ccn[nH]3)cc2)c1 | 2.24 µM [rising, partial curve] |  |
| CCOc1ccc(-c2cc(CCCC(=O)NCCc3ccc(OC)c(OC)c3OC)no2)cc1 | 22.4 µM [falling, partial curve, poor fit] |  |
| Cc1cc(C)nc(SC(C(=O)O)c2ccccc2)n1 (stereo unspecified) | 5.17 µM [rising, partial curve, poor fit] |  |
| CCn1cc([N+](=O)[O-])c(C(=O)N2N=C(c3ccccc3)CC2c2ccc([N+](=O)[O-])cc2)n1 (stereo unspecified) | 1.64 µM [rising, partial curve, poor fit] |  |
| Cc1nc(N2CCOCC2)[nH]c(=O)c1[N+](=O)[O-] | 3.98 µM [rising, full curve, poor fit] |  |
| COc1ccc(-c2cc(-c3cccs3)c(C#N)c(SCC(=O)NCc3ccco3)n2)cc1 | 11.2 µM [rising, partial curve] | 12.6 µM [falling, partial curve, poor fit] |
| Oc1ccccc1/C=N/Nc1cccc2cccnc12 | 10 µM [falling, single point] |  |
| CCN(C(=O)COC(=O)/C(=C/c1ccccc1)n1nnnc1C)C1CCCCC1 | 3.26 µM [falling, full curve] |  |
| CCOC(=O)CSc1nnc(CSc2nc(C)cc(C)n2)n1Cc1ccco1 | 0.13 µM [rising, full curve, poor fit] |  |

Given tab-delimited: part of the list above
Compound	AC50 [1]	AC50 [2]
COC(=O)Cc1nc2ccccc2[nH]1	7.94 µM [falling, partial curve, poor fit]	
N#Cc1c(NC(=O)CSc2ncnc3sccc23)oc(-c2ccco2)c1-c1ccco1		1 µM [rising, full curve, poor fit]

3 compounds from above, arranged by molar mass, low to high.

| Compound | AC50 [1] | AC50 [2] |
| --- | --- | --- |
| S=c1nc(C2CC2)[nH]c2ccccc12 | 5.8 µM [rising, single point] | 10.3 µM [falling, partial curve, poor fit] |
| Cc1nc(N2CCOCC2)[nH]c(=O)c1[N+](=O)[O-] | 3.98 µM [rising, full curve, poor fit] |  |
| CCCCCCC(=O)Nc1nc(C)c(-c2csc(Nc3cc(OC)ccc3OC)n2)s1 | 17.8 µM [falling, partial curve, poor fit] |  |

Further structures.

| Compound | AC50 [1] | AC50 [2] |
| --- | --- | --- |
| O=C(CN1CCc2cc3c(cc2C1)OCCCO3)Nc1cccc(Br)c1 | 17.8 µM [falling, single point] |  |
| Cc1cc(C)n(-c2nc(-c3cccc(Cl)c3)cs2)n1 | 14.1 µM [rising, partial curve, poor fit] |  |
| O=C(Nc1ncc([N+](=O)[O-])s1)C1COc2ccccc2O1 (stereo unspecified) | 0.891 µM [falling, full curve] |  |
| COc1cc(OC)cc(-c2cc3ccc(OC)cc3cn2)c1 | 23.1 µM [falling, partial curve] |  |
| O=C(NCC(=O)N1CCN(Cc2ccc3c(c2)OCO3)CC1)c1ccccc1F | 6.51 µM [rising, single point] |  |
| COc1ccc(Nc2cc(C)nc3ccc(OC)cc23)cc1 | 3.55 µM [falling, full curve] |  |
| CC(=O)N1CCc2cc(S(=O)(=O)N3CCCCCC3)ccc21 | 22.4 µM [rising, partial curve, poor fit] |  |
| Cc1ccc(Nc2nnc(SCC(=O)c3cc4ccccc4o3)s2)cc1C | 2.59 µM [rising, partial curve, poor fit] |  |
| CC(C)(C)N1C(=O)[C@H]2[C@@H](c3ccc(Br)cc3)N3C(=O)N(c4ccccc4)C(=O)[C@@]3(Cc3ccccc3)[C@H]2C1=O | 25.9 µM [falling, partial curve, poor fit] |  |
| CCc1ccc2c(c1)C1(C(=O)N2)N2CCCC2C(C(=O)c2ccc3ccccc3c2)C12C(=O)Nc1ccccc12 (stereo unspecified) | 16.4 µM [falling, single point] |  |
| O=[N+]([O-])c1ccc(N/N=C2/CCCCC2c2ccccn2)cc1 (stereo unspecified) | 16.4 µM [falling, partial curve] |  |
| O=C(CSc1nnc(CNc2ccc(F)cc2)n1CC1CCCO1)Nc1ccccc1 (stereo unspecified) | 29.1 µM [falling, single point] |  |
| N=c1oc2cc(O)ccc2cc1C(=O)Nc1ccc(Br)cc1 | 0.1 µM [falling, full curve] |  |
| Cc1cc(NC(=O)CCC(=O)N(CC(=O)NC2CCCC2)Cc2ccc(F)cc2)no1 | 0.731 µM [rising, full curve] |  |
| COc1cc(NC(=O)CN(c2ccc(C)cc2)S(=O)(=O)c2c(C)noc2C)cc(OC)c1 | 12.6 µM [falling, partial curve, poor fit] |  |
| O=C(Nc1cccc(O)c1)c1cccc(NC(=O)c2cccs2)c1 | 25.1 µM [falling, single point] |  |
| COCC(C)n1c(COc2ccccc2F)nnc1SCc1c(C)noc1C (stereo unspecified) | 29.1 µM [falling, single point] |  |
| Cc1c(Cl)cccc1NC(=O)CCC(=O)c1cccs1 | 35.5 µM [rising, partial curve, poor fit] |  |
| CC(C)NC(=O)CCS(=O)(=O)c1cccc2nonc12 | 6.51 µM [rising, single point] |  |
| COc1ccc(S(=O)(=O)N2N=C(c3ccc(NS(C)(=O)=O)cc3)CC2c2ccco2)cc1 (stereo unspecified) | 35.5 µM [falling, single point] |  |
